Test results: paper PMC10920453
These are yes or no findings as the source states them, for the method shown. In cells and extracts the contact can be indirect. Some entries that bind do so weakly or less than the wild type.

Sequences of proteins named here, by UniProt entry; tags and fusion partners are left off.
UniProt Q92993: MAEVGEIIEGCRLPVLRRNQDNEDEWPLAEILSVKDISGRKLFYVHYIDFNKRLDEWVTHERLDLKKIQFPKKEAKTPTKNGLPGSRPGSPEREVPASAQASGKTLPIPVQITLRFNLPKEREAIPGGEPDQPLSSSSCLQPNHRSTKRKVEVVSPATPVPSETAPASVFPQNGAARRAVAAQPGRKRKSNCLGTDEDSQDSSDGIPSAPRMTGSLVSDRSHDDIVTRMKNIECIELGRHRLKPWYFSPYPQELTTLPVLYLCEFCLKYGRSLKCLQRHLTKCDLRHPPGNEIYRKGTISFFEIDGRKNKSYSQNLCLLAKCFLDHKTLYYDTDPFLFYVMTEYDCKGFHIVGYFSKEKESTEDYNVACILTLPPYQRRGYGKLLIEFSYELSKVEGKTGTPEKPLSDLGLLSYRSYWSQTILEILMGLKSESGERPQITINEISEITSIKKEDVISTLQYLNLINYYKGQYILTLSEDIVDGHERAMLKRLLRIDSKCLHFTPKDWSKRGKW

Molecular target: Lysine acetyltransferase 5 (KAT5) (human (endogenous in HepG2)) (UniProt Q92993)
Test: co-IP; HepG2 cell lysate; precipitated with anti-KAT5 antibody (anti-IgG as negative control), Protein G/A beads, 4 °C; washed with 50 mM Tris-HCl pH 7.4, 100 mM NaCl, 5 mM CaCl2, 5 mM MgCl2, 0.1% Nonidet P-40; western blot with anti-ALDOA

binding: binds
B1: Aldolase A (ALDOA) (enzyme, UniProt P04075 1-364)
chain: MPYQYPALTPEQKKELSDIAHRIVAPGKGILAADESTGSIAKRLQSIGTENTEENRRFYRQLLLTADDRVNPCIGGVILFHETLYQKADDGRPFPQVIKSKGGVVGIKVDKGVVPLAGTNGETTTQGLDGLSERCAQYKKDGADFAKWRCVLKIGEHTPSALAIMENANVLARYASICQQNGIVPIVEPEILPDGDHDLKRCQYVTEKVLAAVYKALSDHHIYLEGTLLKPNMVTPGHACTQKFSHEEIAMATVTALRRTVPPAVTGITFLSGGQSEEEASINLNAINKCPLLKPWALTFSYGRALQASALKAWGGKKENLKAAQEEYVKRALANSLACQGKYTPSGQAGAAASESLFVSNHAY
